Data: patent publication US12281162 (LANOVA MEDICINES DEVELOPMENT, dated 2025)
Positions count from the first letter of the chain named. Results are given in words; binding and its absence hold for the method and conditions named. Some entries that bind do so weakly or less than the wild type.

Amino acid sequences for entries named in this document (tags omitted).
UniProt Q9NZD1: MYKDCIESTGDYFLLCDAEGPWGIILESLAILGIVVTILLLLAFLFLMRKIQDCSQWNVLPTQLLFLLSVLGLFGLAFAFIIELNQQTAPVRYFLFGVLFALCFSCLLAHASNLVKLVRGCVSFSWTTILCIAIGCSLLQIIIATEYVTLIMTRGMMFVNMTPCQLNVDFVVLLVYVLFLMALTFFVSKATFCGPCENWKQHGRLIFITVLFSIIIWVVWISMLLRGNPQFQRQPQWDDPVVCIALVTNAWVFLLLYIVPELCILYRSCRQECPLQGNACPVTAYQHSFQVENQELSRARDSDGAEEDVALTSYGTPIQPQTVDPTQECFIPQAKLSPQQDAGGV

B1: 58-H2L2 (antibody, V domains shown)
VH: QVQLVQSGAEVKKPGASVKVSCKASGYSFTGYYIHWVRQAPGQGLEWIGYISSYNAATSFNQKFKGRVTFTVDTSTSTVYMELSSLRSEDTAVYYCARTELRGPWFAYWGQGTLVTVSS
VL: DTQMTQSPSSLSASVGDRVTITCSASSSVSYMNWYQQKPGKAPKRLIYDTSKLASGVPSRFSGSGSGTDYTLTISSLQPEDFATYYCQQWSNNPLTFGQGTKLEIK
notes: humanized 58F9G10, VH v2 x VL v2
B2: 58-H1L2 (antibody, V domains shown)
VH: B1 VH with I48M, F70M, V72R
VL: B1 VL
notes: humanized 58F9G10, VH v1 x VL v2
B3: 58-H1L3 (antibody, V domains shown)
VH: B1 VH with I48M, F70M, V72R
VL: B1 VL with M4L, I21M, L77M
notes: humanized 58F9G10, VH v1 x VL v3
B4: 58-H2L1 (antibody, V domains shown)
VH: B1 VH
VL: B1 VL with T2I, R45L, Y70F
notes: humanized 58F9G10, VH v2 x VL v1
B5: 58-H2L3 (antibody, V domains shown)
VH: B1 VH
VL: B1 VL with M4L, I21M, L77M
notes: humanized 58F9G10, VH v2 x VL v3
B6: 58-H3L2 (antibody, V domains shown)
VH: B1 VH with R38K, L83F
VL: B1 VL
notes: humanized 58F9G10, VH v3 x VL v2
B7: 58-H3L3 (antibody, V domains shown)
VH: B1 VH with R38K, L83F
VL: B1 VL with M4L, I21M, L77M
notes: humanized 58F9G10, VH v3 x VL v3
B8: 58-H4L1 (antibody, V domains shown)
VH: B1 VH with V20I, R38K, V68A, V79A, L83F, T91S
VL: B1 VL with T2I, R45L, Y70F
notes: humanized 58F9G10, VH v4 x VL v1
B9: 58-H4L2 (antibody, V domains shown)
VH: B1 VH with V20I, R38K, V68A, V79A, L83F, T91S
VL: B1 VL
notes: humanized 58F9G10, VH v4 x VL v2
B10: 58-H4L3 (antibody, V domains shown)
VH: B1 VH with V20I, R38K, V68A, V79A, L83F, T91S
VL: B1 VL with M4L, I21M, L77M
notes: humanized 58F9G10, VH v4 x VL v3
B11: 34-H2L2 (antibody, V domains shown)
VH: EVQLVESGGGLVKPGGSLRLSCAASGFTFSSYGMSWVRQTPGKGLEWVATISSGGSYTYYPDSVKGRFTISRDNAKNSLYLQMSSLRAEDTAVYYCARQGGDAMDYWGQGTLVTVSS
VL: DIQMTQSPSSLSASVGDRVTITCRASQSINNNLHWYQQKPGKAPKLLIYYASQSISGIPSRFSGSGSGTDFTLTISSVQPEDFATYFCQQSNSRLTFGGGTKVEIK
notes: humanized 34D3H1, VH v2 x VL v2
B12: 34-H1L2 (antibody, V domains shown)
VH: B11 VH with T40A, A49S, S84N
VL: B11 VL
notes: humanized 34D3H1, VH v1 x VL v2
B13: 34-H1L3 (antibody, V domains shown)
VH: B11 VH with T40A, A49S, S84N
VL: B11 VL with M4L, A43S, V103L
notes: humanized 34D3H1, VH v1 x VL v3
B14: 34-H1L4 (antibody, V domains shown)
VH: B11 VH with T40A, A49S, S84N
VL: B11 VL with Q3V, M4L, A13V, I21L, A43S, V103L
notes: humanized 34D3H1, VH v1 x VL v4
B15: 34-H2L1 (antibody, V domains shown)
VH: B11 VH
VL: B11 VL with I58V, V78L, F87Y
notes: humanized 34D3H1, VH v2 x VL v1
B16: 34-H2L3 (antibody, V domains shown)
VH: B11 VH
VL: B11 VL with M4L, A43S, V103L
notes: humanized 34D3H1, VH v2 x VL v3
B17: 34-H2L4 (antibody, V domains shown)
VH: B11 VH
VL: B11 VL with Q3V, M4L, A13V, I21L, A43S, V103L
notes: humanized 34D3H1, VH v2 x VL v4
B18: 34-H3L1 (antibody, V domains shown)
VH: B11 VH with Q3H, G44R, Y80N
VL: B11 VL with I58V, V78L, F87Y
notes: humanized 34D3H1, VH v3 x VL v1
B19: 34-H3L2 (antibody, V domains shown)
VH: B11 VH with Q3H, G44R, Y80N
VL: B11 VL
notes: humanized 34D3H1, VH v3 x VL v2
B20: 34-H3L3 (antibody, V domains shown)
VH: B11 VH with Q3H, G44R, Y80N
VL: B11 VL with M4L, A43S, V103L
notes: humanized 34D3H1, VH v3 x VL v3
B21: 34-H3L4 (antibody, V domains shown)
VH: B11 VH with Q3H, G44R, Y80N
VL: B11 VL with Q3V, M4L, A13V, I21L, A43S, V103L
notes: humanized 34D3H1, VH v3 x VL v4
B22: 37-H2L2 (antibody, V domains shown)
VH: EVQLVESGGGLVQPGGSLRLSCAASGFTFSDYWMNWVRQSPGKGLEWVAEIRLKSNNYATHYAESVKGRFTISRDNAKSSLYLQMNSLRAEDTAVYYCTRPLLWFRRYYAMDYWGQGTLVTVSS
VL: DIQMTQSPSSLSASVGDRVTITCSASQGISNYLNWYQQKPGKTVKLLIYYTSSLHSGVPSRFSGSGSGTDYTLTISSLQPEDFATYYCQQYSKLPFTFGQGTKLEIK
notes: humanized 37B9C4, VH v2 x VL v2
B23: 37-H1L2 (antibody, V domains shown)
VH: B22 VH with S40A, S79N, T99A
VL: B22 VL
notes: humanized 37B9C4, VH v1 x VL v2
B24: 37-H1L3 (antibody, V domains shown)
VH: B22 VH with S40A, S79N, T99A
VL: B22 VL with V19I, Q100S
notes: humanized 37B9C4, VH v1 x VL v3
B25: 37-H2L1 (antibody, V domains shown)
VH: B22 VH
VL: B22 VL with T43A, V44P, Y71F
notes: humanized 37B9C4, VH v2 x VL v1
B26: 37-H2L3 (antibody, V domains shown)
VH: B22 VH
VL: B22 VL with V19I, Q100S
notes: humanized 37B9C4, VH v2 x VL v3
B27: 37-H3L1 (antibody, V domains shown)
VH: B22 VH with N76D, A77S, L81V
VL: B22 VL with T43A, V44P, Y71F
notes: humanized 37B9C4, VH v3 x VL v1
B28: 37-H3L2 (antibody, V domains shown)
VH: B22 VH with N76D, A77S, L81V
VL: B22 VL
notes: humanized 37B9C4, VH v3 x VL v2
B29: 37-H3L3 (antibody, V domains shown)
VH: B22 VH with N76D, A77S, L81V
VL: B22 VL with V19I, Q100S
notes: humanized 37B9C4, VH v3 x VL v3

Target: human G-protein-coupled receptor family C group 5 member D (GPRC5D) (human) (UniProt Q9NZD1)
Experiment: FACS, CHO-K1/GPRC5D

Row | Binder | binding
1 | B1 | binds
2 | B2 | binds
3 | B3 | binds
4 | B4 | binds
5 | B5 | binds
6 | B6 | binds
7 | B7 | binds
8 | B8 | binds
9 | B9 | binds
10 | B10 | binds
11 | B11 | binds
12 | B12 | binds
13 | B13 | binds
14 | B14 | binds
15 | B15 | binds
16 | B16 | binds
17 | B17 | binds
18 | B18 | binds
19 | B19 | binds
20 | B20 | binds
21 | B21 | binds
22 | B22 | binds
23 | B23 | binds
24 | B24 | binds
25 | B25 | binds
26 | B26 | binds
27 | B27 | binds
28 | B28 | binds
29 | B29 | binds
